Earlier results, collected in US20070010485A1 (priority 2005, published 2007).
At least one compound was matched to its structure with a doubt left.

Tested on: P-gp expressing CD33(+) leukemia cells
Details: cited from earlier work

In the case of `C/C=C/C[C@@H](C)C(=O)[C@H]1C(=O)N[C@@H](C(C)C)C(=O)N(C)CC(=O)N(C)[C@@H](CC(C)C)C(=O)N[C@@H](C(C)C)C(=O)N(C)[C@@H](CC(C)C)C(=O)N[C@@H](C)C(=O)N[C@H](C)C(=O)N(C)[C@@H](CC(C)C)C(=O)N(C)[C@@H](CC(C)C)C(=O)N(C)[C@@H](C(C)C)C(=O)N1C` [valspodar], the “reversal of resistance to Mylotarg” value is listed as “reverse the resistance to Mylotarg”.
